Here are results for 1 substance from publication PMC11335208.

Protein sequences, listed by entry. Tags and fused reporters are not part of them.
UniProt Q8NFU7: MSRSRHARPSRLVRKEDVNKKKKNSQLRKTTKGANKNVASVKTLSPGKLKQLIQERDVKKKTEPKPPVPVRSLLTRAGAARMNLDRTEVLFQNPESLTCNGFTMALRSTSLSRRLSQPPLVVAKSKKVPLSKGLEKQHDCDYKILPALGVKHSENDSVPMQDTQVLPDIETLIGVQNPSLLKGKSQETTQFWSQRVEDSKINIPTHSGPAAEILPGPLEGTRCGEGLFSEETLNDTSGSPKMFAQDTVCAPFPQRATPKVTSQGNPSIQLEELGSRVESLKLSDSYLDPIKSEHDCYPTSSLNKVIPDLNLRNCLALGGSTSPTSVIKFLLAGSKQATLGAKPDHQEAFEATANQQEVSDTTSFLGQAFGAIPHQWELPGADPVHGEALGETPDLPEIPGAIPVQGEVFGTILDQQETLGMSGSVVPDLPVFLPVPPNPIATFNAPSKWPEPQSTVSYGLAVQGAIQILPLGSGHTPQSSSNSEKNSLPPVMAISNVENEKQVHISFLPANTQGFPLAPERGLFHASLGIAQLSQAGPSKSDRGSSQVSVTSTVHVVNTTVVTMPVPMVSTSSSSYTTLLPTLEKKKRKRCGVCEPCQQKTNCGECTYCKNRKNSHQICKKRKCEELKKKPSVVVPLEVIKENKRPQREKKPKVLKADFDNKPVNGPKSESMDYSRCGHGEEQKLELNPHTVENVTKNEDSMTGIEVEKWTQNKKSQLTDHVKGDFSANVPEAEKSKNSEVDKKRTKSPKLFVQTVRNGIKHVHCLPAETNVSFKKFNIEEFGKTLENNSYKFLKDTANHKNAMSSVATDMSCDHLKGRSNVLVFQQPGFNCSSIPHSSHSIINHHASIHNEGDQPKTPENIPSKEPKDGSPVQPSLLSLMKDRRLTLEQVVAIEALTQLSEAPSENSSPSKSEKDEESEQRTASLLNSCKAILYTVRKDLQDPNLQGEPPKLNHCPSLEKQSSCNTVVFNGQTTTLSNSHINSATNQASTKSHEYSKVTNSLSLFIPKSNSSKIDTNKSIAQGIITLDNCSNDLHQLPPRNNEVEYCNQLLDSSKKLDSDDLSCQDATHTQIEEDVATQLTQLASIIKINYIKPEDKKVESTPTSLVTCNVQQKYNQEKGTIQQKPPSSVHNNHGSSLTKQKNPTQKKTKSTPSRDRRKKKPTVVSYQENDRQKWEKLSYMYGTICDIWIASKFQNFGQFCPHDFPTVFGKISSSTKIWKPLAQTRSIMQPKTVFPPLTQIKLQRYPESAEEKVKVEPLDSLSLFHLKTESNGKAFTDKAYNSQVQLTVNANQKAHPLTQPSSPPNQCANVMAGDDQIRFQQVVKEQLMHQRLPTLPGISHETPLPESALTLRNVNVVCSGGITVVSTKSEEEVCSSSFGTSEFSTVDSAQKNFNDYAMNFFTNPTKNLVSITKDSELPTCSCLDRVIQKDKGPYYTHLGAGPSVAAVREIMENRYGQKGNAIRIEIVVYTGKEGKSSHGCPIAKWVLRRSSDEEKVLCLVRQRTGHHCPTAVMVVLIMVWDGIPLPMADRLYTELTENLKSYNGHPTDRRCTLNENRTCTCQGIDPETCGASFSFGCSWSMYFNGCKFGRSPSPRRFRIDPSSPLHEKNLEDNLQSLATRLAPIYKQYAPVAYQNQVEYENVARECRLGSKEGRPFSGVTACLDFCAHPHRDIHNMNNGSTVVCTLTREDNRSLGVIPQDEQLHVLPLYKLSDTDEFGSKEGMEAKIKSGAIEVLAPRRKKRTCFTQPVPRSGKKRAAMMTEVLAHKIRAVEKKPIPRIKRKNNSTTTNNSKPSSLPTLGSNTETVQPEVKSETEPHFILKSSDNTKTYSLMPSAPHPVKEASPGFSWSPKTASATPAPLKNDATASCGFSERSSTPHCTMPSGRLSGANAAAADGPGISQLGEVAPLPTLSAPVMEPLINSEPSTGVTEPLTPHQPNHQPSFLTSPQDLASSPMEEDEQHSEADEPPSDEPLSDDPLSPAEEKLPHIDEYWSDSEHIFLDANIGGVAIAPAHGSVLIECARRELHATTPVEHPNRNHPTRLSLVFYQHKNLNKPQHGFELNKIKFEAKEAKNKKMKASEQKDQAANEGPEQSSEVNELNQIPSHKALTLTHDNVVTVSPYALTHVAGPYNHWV
UniProt P46937: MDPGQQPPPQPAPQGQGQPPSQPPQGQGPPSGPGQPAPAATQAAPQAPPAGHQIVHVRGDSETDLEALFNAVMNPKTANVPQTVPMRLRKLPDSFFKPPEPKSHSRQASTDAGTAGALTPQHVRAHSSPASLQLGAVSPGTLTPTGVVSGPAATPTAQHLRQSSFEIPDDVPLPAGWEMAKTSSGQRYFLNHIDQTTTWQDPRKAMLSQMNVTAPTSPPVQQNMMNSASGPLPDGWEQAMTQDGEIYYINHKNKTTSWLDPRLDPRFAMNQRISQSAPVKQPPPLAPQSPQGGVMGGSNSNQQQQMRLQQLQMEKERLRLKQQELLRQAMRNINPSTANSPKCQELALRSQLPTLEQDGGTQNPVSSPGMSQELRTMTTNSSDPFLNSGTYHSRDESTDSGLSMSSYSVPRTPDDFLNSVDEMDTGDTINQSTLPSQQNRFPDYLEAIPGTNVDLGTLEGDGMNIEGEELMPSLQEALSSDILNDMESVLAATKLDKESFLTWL

Results are given in words; binding and its absence hold for the method and conditions named. Binding seen in cells or lysates may run through a third protein. Some binding calls cover weakened binding; strength is not graded here.

The target in the assay is endogenous TET1 (Ten-eleven translocation protein 1) (human (endogenous in Huh-7)) (UniProt Q8NFU7). Briefly: co-IP; immunoprecipitation of endogenous proteins from nuclear extracts of sorafenib-resistant Huh-7 cells; IP of YAP1 and, in turn, IP of TET1.

Take “endogenous YAP1 (Yes-associated protein 1) (from UniProt P46937 1-504)”: the binding result was “binds”.
